From patent publication US20100136061A1 (LA JOLLA INSTITUTE FOR ALLERGY AND IMMUNOLOGY, published 2010)
No constants are given. Whether binding was seen depends on the method and setting. Some results given as binding are weak or reduced against the parent protein; the word gives no strength. For some assays here: Tags and fused reporters may be left off the sequences shown. Values belong to the molecule of their own block, whether it stands above or below them.

Chains of the proteins cited; added tags and fusions are not shown. Lines headed by an entry give the natural chain unless they say otherwise; changes in a name come on top. Residues count along the entry.
UniProt O43557: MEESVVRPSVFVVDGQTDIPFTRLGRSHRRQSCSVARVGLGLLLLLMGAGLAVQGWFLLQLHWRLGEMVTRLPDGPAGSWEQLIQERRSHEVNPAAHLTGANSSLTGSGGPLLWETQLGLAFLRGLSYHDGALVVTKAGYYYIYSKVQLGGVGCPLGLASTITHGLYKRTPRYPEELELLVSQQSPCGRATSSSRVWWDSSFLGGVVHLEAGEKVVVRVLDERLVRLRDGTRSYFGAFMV
UniProt P36941, residues 31-227: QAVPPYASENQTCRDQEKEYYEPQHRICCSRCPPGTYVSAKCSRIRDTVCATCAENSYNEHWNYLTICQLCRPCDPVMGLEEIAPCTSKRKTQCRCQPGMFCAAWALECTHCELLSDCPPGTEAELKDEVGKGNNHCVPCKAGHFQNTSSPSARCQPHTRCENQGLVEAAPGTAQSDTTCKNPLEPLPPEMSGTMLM
UniProt Q80WM9, residues 39-206: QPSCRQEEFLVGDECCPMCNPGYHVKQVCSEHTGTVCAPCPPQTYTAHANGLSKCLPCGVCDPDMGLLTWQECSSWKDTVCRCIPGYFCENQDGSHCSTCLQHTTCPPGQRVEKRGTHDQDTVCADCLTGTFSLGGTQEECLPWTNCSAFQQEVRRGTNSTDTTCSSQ

What was measured:
[1] = target: Heterotrimeric human LIGHT 32L-214E/32S-214K (combination of LIGHT-S32L and LIGHT-E214K subunits) expressed on EL4 cells (human) (UniProt O43557); assay: flow cytometry, graded LTβR-Fc on EL4 cells expressing LIGHT variants
[2] = target: Heterotrimeric human LIGHT 32L-214E/32S-214K (combination of LIGHT-S32L and LIGHT-E214K subunits) expressed on EL4 cells (human) (UniProt O43557); assay: flow cytometry on EL4 cells expressing LIGHT variants
[3] = target: Soluble human LIGHT (LIGHTt66), biotinylated and immobilized through Neutravidin on biotinylated, formalin-fixed EL4 cells (human) (UniProt O43557); assay: flow cytometry on LIGHT-decorated EL4 cells (EL4-NA-LIGHT), mouse HVEM-Fc 20 µg/ml
[4] = target: Heterotrimeric human LIGHT 32L-214E/32S-214K (combination of LIGHT-S32L and LIGHT-E214K subunits) expressed on EL4 cells (human) (UniProt O43557); assay: flow cytometry, graded DcR3-Fc on EL4 cells expressing LIGHT variants

Molecule: LTβR-Fc (human Lymphotoxin-β receptor Fc fusion) (from UniProt P36941 31-227)
binding [1]: binds
binding [2]: binds

binding [3]: binds
Molecule: mouse HVEM-Fc (from UniProt Q80WM9 39-206) (Fc fusion)

binding [4]: binds
binding [2]: binds
B1: DcR3-Fc (human Decoy Receptor 3 Fc fusion) (Fc fusion, UniProt O95407 30-300, looked up)
chain: VAETPTYPWRDAETGERLVCAQCPPGTFVQRPCRRDSPTTCGPCPPRHYTQFWNYLERCRYCNVLCGEREEEARACHATHNRACRCRTGFFAHAGFCLEHASCPPGAGVIAPGTPSQNTQCQPCPPGTFSASSSSSEQCQPHRNCTALGLALNVPGSSSHDTLCTSCTGFPLSTRVPGAEECERAVIDFVAFQDISIKRLQRLLQALEAPEGWGPTPRAGRAALQLKLRRRLTELLGAQDGALLVRLLQALRVARMPGLERSVRERFLPVH
notes: also called human DcR3; not shown: Fc part
